Experimental findings from patent US5719296A (Merck & Co., Inc., priority 1996, dated 1998) are described below.

A short description of the data set: general procedure: solution-phase peptide synthesis; EDC/HOBT. To be noted: whole synthesis, RP-HPLC.

For the substance EtOCO-Phe-(R)-γ-Lactam-Nva-Leu-NH2, the “final HPLC purity” value worked out at 80% purity and the “final purity (method not given)” value turned out to be 98%.
